These are yes or no findings as the source states them, for the method shown. Binding seen in cells or lysates may run through a third protein. Binding can be weak; no strength is given. Tags and fused reporters may be left off the sequences shown.
Target: T1, ARLPK1-interacting receptor-like kinase 1 (AKIK1), FLAG-tagged (Arabidopsis) (UniProt C0LGW2)
T1 sequence: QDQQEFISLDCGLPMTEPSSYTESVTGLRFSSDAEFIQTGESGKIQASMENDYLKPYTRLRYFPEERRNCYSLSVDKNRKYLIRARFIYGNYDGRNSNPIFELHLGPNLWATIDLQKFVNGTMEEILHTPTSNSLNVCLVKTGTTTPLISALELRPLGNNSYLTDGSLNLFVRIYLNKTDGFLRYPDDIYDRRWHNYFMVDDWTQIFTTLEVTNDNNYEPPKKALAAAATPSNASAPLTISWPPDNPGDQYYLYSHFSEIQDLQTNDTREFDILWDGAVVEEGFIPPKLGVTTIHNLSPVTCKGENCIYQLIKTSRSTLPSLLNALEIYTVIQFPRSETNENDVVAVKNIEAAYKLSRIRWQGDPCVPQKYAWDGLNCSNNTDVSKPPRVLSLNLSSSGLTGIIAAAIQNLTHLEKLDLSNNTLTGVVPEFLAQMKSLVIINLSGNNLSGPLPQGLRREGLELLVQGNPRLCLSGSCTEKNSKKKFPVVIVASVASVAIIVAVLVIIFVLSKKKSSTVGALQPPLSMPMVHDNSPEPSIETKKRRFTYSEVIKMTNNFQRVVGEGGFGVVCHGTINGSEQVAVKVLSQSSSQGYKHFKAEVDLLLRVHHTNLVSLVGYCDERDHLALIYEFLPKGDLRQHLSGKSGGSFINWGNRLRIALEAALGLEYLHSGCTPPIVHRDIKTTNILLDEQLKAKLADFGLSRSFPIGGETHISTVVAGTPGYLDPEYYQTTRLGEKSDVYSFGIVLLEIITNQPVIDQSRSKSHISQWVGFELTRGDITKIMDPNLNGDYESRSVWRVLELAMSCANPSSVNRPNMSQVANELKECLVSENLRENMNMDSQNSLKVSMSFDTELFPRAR
Experiment: co-IP; transient co-expression in N. benthamiana leaves; total proteins from extracts immunoprecipitated with ANTI-FLAG M2 affinity gel; western blot with anti-FLAG and anti-YFP antibodies

| binding | Substance |
| --- | --- |
| no binding | atypical receptor-like pseudokinase 2 (ARLPK2), YFP-tagged (Arabidopsis) |
| binds | atypical receptor-like pseudokinase 1 (ARLPK1), YFP-tagged (Arabidopsis) |

Reference: PMC4848489
